Reference: publication PMC11178540
These are yes or no findings as the source states them, for the method shown. Binding seen in cells or lysates may run through a third protein. Some results given as binding are weak or reduced against the parent protein; the word gives no strength.

Sequences of proteins named here, by UniProt entry; tags and fusion partners are left off.
UniProt Q969V5: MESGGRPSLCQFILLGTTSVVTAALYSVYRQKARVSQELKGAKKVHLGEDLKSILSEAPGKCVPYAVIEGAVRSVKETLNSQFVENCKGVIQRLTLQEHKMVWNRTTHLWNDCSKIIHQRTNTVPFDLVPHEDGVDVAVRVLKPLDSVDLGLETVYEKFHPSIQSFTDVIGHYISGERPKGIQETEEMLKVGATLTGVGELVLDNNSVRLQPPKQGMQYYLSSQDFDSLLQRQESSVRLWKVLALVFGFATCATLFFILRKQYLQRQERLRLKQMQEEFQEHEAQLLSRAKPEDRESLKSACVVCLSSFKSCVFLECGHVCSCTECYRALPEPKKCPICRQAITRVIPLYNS
UniProt Q99814: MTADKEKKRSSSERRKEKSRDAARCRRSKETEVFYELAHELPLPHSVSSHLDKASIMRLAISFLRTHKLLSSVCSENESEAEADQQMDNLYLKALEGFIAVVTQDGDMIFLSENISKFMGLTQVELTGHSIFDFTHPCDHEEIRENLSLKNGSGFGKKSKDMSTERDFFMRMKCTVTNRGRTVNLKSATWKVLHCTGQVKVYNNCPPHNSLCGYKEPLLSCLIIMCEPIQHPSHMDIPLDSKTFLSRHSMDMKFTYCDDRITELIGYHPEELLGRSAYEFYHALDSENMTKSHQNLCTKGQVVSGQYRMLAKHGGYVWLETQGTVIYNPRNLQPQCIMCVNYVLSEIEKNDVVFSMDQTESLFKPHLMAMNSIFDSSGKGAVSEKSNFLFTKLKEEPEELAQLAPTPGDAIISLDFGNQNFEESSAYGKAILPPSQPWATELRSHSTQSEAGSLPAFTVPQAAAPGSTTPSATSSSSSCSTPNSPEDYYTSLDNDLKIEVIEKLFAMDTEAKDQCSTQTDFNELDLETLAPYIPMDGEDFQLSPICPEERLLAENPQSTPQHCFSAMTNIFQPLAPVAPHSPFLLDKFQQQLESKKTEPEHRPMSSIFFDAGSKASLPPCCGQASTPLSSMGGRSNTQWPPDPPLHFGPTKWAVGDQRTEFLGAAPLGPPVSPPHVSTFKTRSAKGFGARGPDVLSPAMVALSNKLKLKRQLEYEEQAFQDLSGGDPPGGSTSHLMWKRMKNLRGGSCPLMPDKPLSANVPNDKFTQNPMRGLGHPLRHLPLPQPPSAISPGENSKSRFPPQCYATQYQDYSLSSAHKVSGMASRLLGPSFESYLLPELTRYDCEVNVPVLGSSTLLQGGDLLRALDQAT

Tests used:
[1] = biological target: mitochondrion-tethered E3 ubiquitin ligase MUL1 (human (endogenous in 786-O, A498 and patient-derived ccRCC tumor cells)) (UniProt Q969V5); assay: co-IP; MUL1 immunoprecipitated from RIPA lysates (500 μg protein, precleared, primary antibody overnight at 4°C, protein A-agarose, 5 washes with RIPA) of 786-O cells treated with DMSO or 5 μM ACSS2i for 24 hours; Western blot
[2] = biological target: mitochondrion-tethered E3 ubiquitin ligase MUL1 (human (endogenous in 786-O, A498 and patient-derived ccRCC tumor cells)) (UniProt Q969V5); assay: co-IP; immunoprecipitation from RIPA lysates of tumor cells freshly isolated from a patient tumor, treated with DMSO, ACSS2i or PT-2385; protein A-agarose; Western blot
[3] = biological target: mitochondrion-tethered E3 ubiquitin ligase MUL1 (human (endogenous in 786-O, A498 and patient-derived ccRCC tumor cells)) (UniProt Q969V5); assay: co-IP; immunoprecipitation from RIPA lysates of A498 cells treated with DMSO or ACSS2i; protein A-agarose; Western blot

Measured: binding

hypoxia-inducible factor-2α (HIF-2α) (from UniProt Q99814 1-870)
binds: all assays above
